This experiment addresses FLAG-tagged GAL4–AF4-2C fusion protein (human). Description: affinity purification with mass spectrometry; fanChIP: chromatin fraction of 293T cells (cytoskeleton buffer extraction, MNase digestion, lysis buffer), anti-FLAG affinity purification, LC-MS/MS of gel pieces.

These are yes or no findings as the source states them, for the method shown. Binding seen in cells or lysates may run through a third protein. A yes stands for co-enrichment or nearness to the bait. Other partners may have been found.

B1: TAF1A (endogenous) (protein, UniProt Q15573 1-450)
chain: MSDFSEELKGPVTDDEEVETSVLSGAGMHFPWLQTYVETVAIGGKRRKDFAQTTSACLSFIQEALLKHQWQQAAEYMYSYFQTLEDSDSYKRQAAPEIIWKLGSEILFYHPKSNMESFNTFANRMKNIGVMNYLKISLQHALYLLHHGMLKDAKRNLSEAETWRHGENTSSREILINLIQAYKGLLQYYTWSEKKMELSKLDKDDYAYNAVAQDVFNHSWKTSANISALIKIPGVWDPFVKSYVEMLEFYGDRDGAQEVLTNYAYDEKFPSNPNAHIYLYNFLKRQKAPRSKLISVLKILYQIVPSHKLMLEFHTLLRKSEKEEHRKLGLEVLFGVLDFAGCTKNITAWKYLAKYLKNILMGNHLAWVQEEWNSRKNWWPGFHFSYFWAKSDWKEDTALACEKAFVAGLLLGKGCRYFRYILKQDHQILGKKIKRMKRSVKKYSIVNPRL
Turning to B1, the binding result is recorded as “binds”.

B2: TAF1C (endogenous) (protein, UniProt Q15572 1-869)
chain: MDFPSSLRPALFLTGPLGLSDVPDLSFMCSWRDALTLPEAQPQNSENGALHVTKDLLWEPATPGPLPMLPPLIDPWDPGLTARDLLFRGGCRYRKRPRVVLDVTEQISRFLLDHGDVAFAPLGKLMLENFKLEGAGSRTKKKTVVSVKKLLQDLGGHQPWGCPWAYLSNRQRRFSILGGPILGTSVASHLAELLHEELVLRWEQLLLDEACTGGALAWVPGRTPQFGQLVYPAGGAQDRLHFQEVVLTPGDNPQFLGKPGRIQLQGPVRQVVTCTVQGESKALIYTFLPHWLTCYLTPGPFHPSSALLAVRSDYHCAVWKFGKQWQPTLLQAMQVEKGATGISLSPHLPGELAICSRSGAVCLWSPEDGLRQIYRDPETLVFRDSSSWRWADFTAHPRVLTVGDRTGVKMLDTQGPPGCGLLLFRLGAEASCQKGERVLLTQYLGHSSPKCLPPTLHLVCTQFSLYLVDERLPLVPMLKWNHGLPSPLLLARLLPPPRPSCVQPLLLGGQGGQLQLLHLAGEGASVPRLAGPPQSLPSRIDSLPAFPLLEPKIQWRLQERLKAPTIGLAAVVPPLPSAPTPGLVLFQLSAAGDVFYQQLRPQVDSSLRRDAGPPGDTQPDCHAPTASWTSQDTAGCSQWLKALLKVPLAPPVWTAPTFTHRQMLGSTELRREEEEGQRLGVLRKAMARGQLLLQRDLGSLPAAEPPPAPESGLEDKLSERLGEAWAGRGAAWWERQQGRTSEPGRQTRRPKRRTQLSSSFSLSGHVDPSEDTSSPHSPEWPPADALPLPPTTPPSQELTPDACAQGVPSEQRQMLRDYMAKLPPQRDTPGCATTPPHSQASSVRATRSQQHTPVLSSSQPLRKKPRMGF
Take B2: the binding result is recorded as “binds”.

B3: TAF1D (endogenous) (protein, UniProt Q9H5J8 1-278)
chain: MDKSGIDSLDHVTSDAVELANRSDNSSDSSLFKTQCIPYSPKGEKRNPIRKFVRTPESVHASDSSSDSSFEPIPLTIKAIFERFKNRKKRYKKKKKRRYQPTGRPRGRPEGRRNPIYSLIDKKKQFRSRGSGFPFLESENEKNAPWRKILTFEQAVARGFFNYIEKLKYEHHLKESLKQMNVGEDLENEDFDSRRYKFLDDDGSISPIEESTAEDEDATHLEDNECDIKLAGDSFIVSSEFPVRLSVYLEEEDITEEAALSKKRATKAKNTGQRGLKM
As for B3, the binding result is “binds”.

B4: TAF1B (endogenous) (protein, UniProt Q53T94 1-588)
chain: MDLEEAEEFKERCTQCAAVSWGLTDEGKYYCTSCHNVTERYQEVTNTDLIPNTQIKALNRGLKKKNNTEKGWDWYVCEGFQYILYQQAEALKNLGVGPELKNDVLHNFWKRYLQKSKQAYCKNPVYTTGRKPTVLEDNLSHSDWASEPELLSDVSCPPFLESGAESQSDIHTRKPFPVSKASQSETSVCSGSLDGVEYSQRKEKGIVKMTMPQTLAFCYLSLLWQREAITLSDLLRFVEEDHIPYINAFQHFPEQMKLYGRDRGIFGIESWPDYEDIYKKTVEVGTFLDLPRFPDITEDCYLHPNILCMKYLMEVNLPDEMHSLTCHVVKMTGMGEVDFLTFDPIAKMAKTVKYDVQAVAIIVVVLKLLFLLDDSFEWSLSNLAEKHNEKNKKDKPWFDFRKWYQIMKKAFDEKKQKWEEARAKYLWKSEKPLYYSFVDKPVAYKKREMVVNLQKQFSTLVESTATAGKKSPSSFQFNWTEEDTDRTCFHGHSLQGVLKEKGQSLLTKNSLYWLSTQKFCRCYCTHVTTYEESNYSLSYQFILNLFSFLLRIKTSLLHEEVSLVEKKLFEKKYSVKRKKSRSKKVRRH
In the case of B4, the binding entry is listed as “binds”.

These data come from publication PMC4673504.
